Reference: publication PMC12700557
Residue numbers refer to the chain shown, from its start. These are yes or no findings as the source states them, for the method shown. In cells and extracts the contact can be indirect. Some results given as binding are weak or reduced against the parent protein; the word gives no strength. For part of these data: Where a sequence is shown, tags or fusion partners need not be part of it.

Amino acid sequences for entries named in this document (tags omitted). A change or cut given only in a name is not applied to a line headed by its entry. Chains listed by the source or under a name are the forms on record and can include a tag or linker.
UniProt O43791: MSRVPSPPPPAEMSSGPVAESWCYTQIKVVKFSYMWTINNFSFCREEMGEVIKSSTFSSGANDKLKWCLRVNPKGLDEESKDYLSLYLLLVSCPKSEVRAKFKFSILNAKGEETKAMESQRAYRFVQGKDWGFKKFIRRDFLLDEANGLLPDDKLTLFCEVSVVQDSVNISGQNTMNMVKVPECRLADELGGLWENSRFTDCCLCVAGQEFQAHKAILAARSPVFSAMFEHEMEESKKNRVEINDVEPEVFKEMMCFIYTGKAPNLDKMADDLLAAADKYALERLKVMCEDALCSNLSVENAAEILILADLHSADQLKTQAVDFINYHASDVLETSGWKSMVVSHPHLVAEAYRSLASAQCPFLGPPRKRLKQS
UniProt Q86WV6: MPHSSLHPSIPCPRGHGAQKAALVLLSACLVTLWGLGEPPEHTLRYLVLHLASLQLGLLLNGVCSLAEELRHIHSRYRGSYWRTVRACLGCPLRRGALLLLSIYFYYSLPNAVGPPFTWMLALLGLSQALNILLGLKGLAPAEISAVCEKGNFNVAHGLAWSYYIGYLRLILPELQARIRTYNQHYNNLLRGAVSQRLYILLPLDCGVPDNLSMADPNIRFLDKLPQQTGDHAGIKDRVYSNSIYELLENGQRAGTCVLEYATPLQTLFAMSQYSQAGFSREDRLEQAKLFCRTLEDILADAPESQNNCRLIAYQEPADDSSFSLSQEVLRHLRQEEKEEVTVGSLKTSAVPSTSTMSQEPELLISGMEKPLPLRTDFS
Flag-STING-4A (Q86WV6, form named): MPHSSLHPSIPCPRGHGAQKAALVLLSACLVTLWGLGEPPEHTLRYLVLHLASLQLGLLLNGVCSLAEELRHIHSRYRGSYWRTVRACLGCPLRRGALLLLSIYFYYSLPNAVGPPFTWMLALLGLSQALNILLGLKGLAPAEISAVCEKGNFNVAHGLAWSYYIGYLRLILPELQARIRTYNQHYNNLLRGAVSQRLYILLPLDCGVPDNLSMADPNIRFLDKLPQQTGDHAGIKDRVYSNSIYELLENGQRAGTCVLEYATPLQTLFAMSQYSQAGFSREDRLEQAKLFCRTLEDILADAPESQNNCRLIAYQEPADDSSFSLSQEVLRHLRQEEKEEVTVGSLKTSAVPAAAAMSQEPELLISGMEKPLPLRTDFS

Key:
[1] = target: HA-SPOP (UniProt O43791); test: co-IP; HA-IP from lysates of 293T cells transfected with the indicated constructs; 10 μM MG132 overnight before collection; washed 5 times with NETN buffer
[2] = target: GST-SPOP (UniProt O43791); test: pull-down; GST pull-down from 293T cells transfected with the indicated constructs; 10 μM MG132 for 12 h; without 6lc
[3] = target: Flag-STING co-expressed with Myc-CK1γ1 (phosphorylated in the PSTST motif) (human) (UniProt Q86WV6); test: co-IP; Flag-IP from 293T cells transfected with Flag-STING, SPOP and Myc-tagged casein kinases; 20 nM Baf-A1 overnight
[4] = target: T1, Flag-mSTING-2A (mouse) (UniProt Q3TBT3); test: co-IP; Flag-IP from lysates of B16 cells stably expressing the indicated molecules by lentivirus infection; 10 μM MG132 overnight
T1 sequence: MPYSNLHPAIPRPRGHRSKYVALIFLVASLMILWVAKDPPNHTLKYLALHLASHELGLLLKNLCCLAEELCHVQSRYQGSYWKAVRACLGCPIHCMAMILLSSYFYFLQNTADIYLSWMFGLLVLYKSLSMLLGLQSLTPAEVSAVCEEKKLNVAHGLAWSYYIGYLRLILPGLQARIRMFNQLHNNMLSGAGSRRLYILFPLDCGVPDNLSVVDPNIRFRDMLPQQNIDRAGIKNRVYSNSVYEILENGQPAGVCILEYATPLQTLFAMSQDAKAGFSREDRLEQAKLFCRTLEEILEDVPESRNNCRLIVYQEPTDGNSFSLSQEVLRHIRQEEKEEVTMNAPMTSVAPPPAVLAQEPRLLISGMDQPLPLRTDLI

[5] = target: T2, Flag-mSTING-WT (mouse) (UniProt Q3TBT3); test: as above
T2 sequence: T1 sequence with A354S, A357S

With “Flag-STING-4A (from UniProt Q86WV6 1-379)” the binding [1] was “binds”.
“Flag-STING-WT (from UniProt Q86WV6 1-379)” was tested, and the binding [1] was “binds” and the binding [2] was “binds”.
For “SPOP (tagged construct not named for this experiment) (from UniProt O43791 1-374)”, the binding [3] was “binds”.
“SPOP in B16 cells (Figure 3N) (from UniProt O43791 1-374)” was tested, and the binding [4] was “binds” and the binding [5] was “binds”.
